Reference: article PMC7762753

These substances were tested against T1, full-length Kindlin-2 (expression plasmid, COS-7 cells) (UniProt Q8CIB5) (assay: co-IP; COS-7 cells co-transfected with Flag-tagged PTH1R cytoplasmic constructs and full-length Kindlin-2; extracts precipitated with Kindlin-2 antibody, blot with Flag and Kindlin-2 antibodies; IP lysis buffer pH 7.4, 0.15 M NaCl, 1% NP-40).
T1 sequence: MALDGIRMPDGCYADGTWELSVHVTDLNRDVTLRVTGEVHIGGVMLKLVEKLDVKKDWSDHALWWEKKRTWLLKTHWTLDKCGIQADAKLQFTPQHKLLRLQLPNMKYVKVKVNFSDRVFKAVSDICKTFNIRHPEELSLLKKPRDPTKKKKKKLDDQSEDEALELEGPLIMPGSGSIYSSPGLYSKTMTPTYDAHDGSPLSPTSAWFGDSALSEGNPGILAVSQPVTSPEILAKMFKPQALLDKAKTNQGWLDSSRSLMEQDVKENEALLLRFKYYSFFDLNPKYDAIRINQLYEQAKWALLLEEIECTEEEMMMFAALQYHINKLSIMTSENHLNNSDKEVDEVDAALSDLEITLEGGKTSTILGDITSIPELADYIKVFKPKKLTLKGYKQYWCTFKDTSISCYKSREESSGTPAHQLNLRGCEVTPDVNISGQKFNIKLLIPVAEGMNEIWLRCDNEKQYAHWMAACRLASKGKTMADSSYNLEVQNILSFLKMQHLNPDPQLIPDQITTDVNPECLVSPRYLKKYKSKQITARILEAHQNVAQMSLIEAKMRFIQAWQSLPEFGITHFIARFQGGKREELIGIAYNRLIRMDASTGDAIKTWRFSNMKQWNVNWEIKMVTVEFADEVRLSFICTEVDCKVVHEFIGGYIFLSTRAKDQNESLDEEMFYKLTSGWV
“Flag-tagged PTH1R cytoplasmic domain aa 1-68 (mouse) (domain or fragment)” was tested, and the binding was “binds”. With “Flag-tagged PTH1R cytoplasmic domain aa 1-88 (mouse) (domain or fragment)” the binding was “binds”. In the case of “Flag-tagged PTH1R cytoplasmic domain aa 1-108 (mouse) (domain or fragment)”, the binding is reported as “binds”. With “Flag-tagged PTH1R cytoplasmic domain aa 1-108 with internal deletion of aa 9-18 (mouse) (domain or fragment)” the binding was “no binding”. With “Flag-tagged PTH1R cytoplasmic domain aa 1-108, mutation #3 (Trp474 to Lys474) (mouse) (domain or fragment)” the binding was “no binding”.

Each substance was assayed against T2, Kindlin-2 (endogenous, MC-4 osteoblastic cells) (mouse (endogenous in MC-4)) (UniProt Q8CIB5) (assay: co-IP; endogenous proteins; whole-cell extracts of MC-4 cells incubated with Kindlin-2 antibody or IgG, Protein A/G magnetic beads, western blotting; IP lysis buffer pH 7.4, 0.025 M Tris, 0.15 M NaCl, 0.001 M EDTA, 1% NP-40, 5% glycerol).
T2 sequence: T1 sequence
With “type 1 parathyroid hormone receptor (endogenous, MC-4 osteoblastic cells) (mouse (endogenous in MC-4))” the binding was “binds”.

Results are given in words; binding and its absence hold for the method and conditions named. Binding seen in cells or lysates may run through a third protein. Binding calls can cover weak binding; strength is not graded here.
